Experimental data as given in PMC8120461.
Results are given in words; binding and its absence hold for the method and conditions named. Binding seen in cells or lysates may run through a third protein. Some entries that bind do so weakly or less than the wild type.

The chains behind the UniProt entries cited, without tags or fusion partners.
UniProt P35222: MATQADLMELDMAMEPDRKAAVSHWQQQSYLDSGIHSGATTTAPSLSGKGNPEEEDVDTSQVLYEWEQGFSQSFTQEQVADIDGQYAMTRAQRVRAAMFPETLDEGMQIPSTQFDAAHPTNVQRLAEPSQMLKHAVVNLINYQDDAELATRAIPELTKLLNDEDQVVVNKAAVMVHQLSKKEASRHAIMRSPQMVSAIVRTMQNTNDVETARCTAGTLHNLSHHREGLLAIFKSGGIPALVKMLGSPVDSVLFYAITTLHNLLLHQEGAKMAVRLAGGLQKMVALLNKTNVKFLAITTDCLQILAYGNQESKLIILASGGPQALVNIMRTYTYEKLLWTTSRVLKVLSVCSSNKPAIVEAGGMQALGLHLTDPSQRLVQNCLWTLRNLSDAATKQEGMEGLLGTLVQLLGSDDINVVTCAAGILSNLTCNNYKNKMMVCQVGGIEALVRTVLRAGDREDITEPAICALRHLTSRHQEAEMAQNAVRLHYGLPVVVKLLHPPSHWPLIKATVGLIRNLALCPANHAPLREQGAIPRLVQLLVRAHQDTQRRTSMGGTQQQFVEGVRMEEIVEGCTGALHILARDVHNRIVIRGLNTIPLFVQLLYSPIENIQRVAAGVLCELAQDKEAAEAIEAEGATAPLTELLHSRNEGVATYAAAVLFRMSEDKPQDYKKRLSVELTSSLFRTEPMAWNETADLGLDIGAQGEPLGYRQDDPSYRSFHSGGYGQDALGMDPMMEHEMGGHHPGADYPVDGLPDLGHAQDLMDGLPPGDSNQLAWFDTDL
UniProt P63104: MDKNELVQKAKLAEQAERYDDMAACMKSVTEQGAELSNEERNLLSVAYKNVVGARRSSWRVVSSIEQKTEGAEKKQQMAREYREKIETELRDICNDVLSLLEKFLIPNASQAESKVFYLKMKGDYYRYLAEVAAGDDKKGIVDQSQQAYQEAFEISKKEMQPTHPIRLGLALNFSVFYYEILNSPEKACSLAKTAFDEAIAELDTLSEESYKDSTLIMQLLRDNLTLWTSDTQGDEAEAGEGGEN

Molecular target: β-catenin (human (endogenous in GC cells)) (UniProt P35222)
Assay: co-IP; IP/Co-IP kit (ABsin, #abs955); endogenous proteins in GC cells; antibodies against β-catenin and YWHAZ; which protein was precipitated is not told

binding: binds
Substance: YWHAZ protein (tyrosine 3-monooxygenase/tryptophan 5-monooxygenase activation protein zeta, 14-3-3ζ) (from UniProt P63104 1-245)
